Record: PubChem BioAssay AID1259405 (NCATS, 2018)
Screen: 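Mouse-designed siRNAs used to find CHO productivity engineering targets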 (primary screen). Cell system: Chinese hamster CHO-K1 ovary cells with stable secreted eGFP expression. Reagent: single siRNA against mouse genes, 0.8 pmol siRNA per well (2 µl of 400 nM stock). Time to read-out: 3 days. Detection: 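Per-well intracellular GFP measured by laser scanning cytometry, plus viability from ATP luminescence, each relative to plate median of non-targeting control wells, in %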. Direction: GFP, % of control: higher = more GFP per well, higher productivity; viability (ATP), % of control: higher = more viable cells (more ATP). Call rule: 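a knock-down is called active if GFP reaches 120% or more of non-targeting control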.
The whole screen tested about 50,000 reagents; below is an unselected part. Of all reagents, about 4,000 (8%) got an active call. 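Mouse siRNA library applied to hamster cells; one well for each siRNA.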 Reagents against one gene are numbered here.

| target | reagent no. | GFP, % of control | viability (ATP), % of control | activity call |
| --- | --- | --- | --- | --- |
| Evc | 1 | 73 | 92.4 | inactive |
| Evc | 2 | 115 | 115 | inactive |
| Evc | 3 | 67.7 | 64.3 | inactive |
| Kitl | 1 | 57.3 | 33.9 | inactive |
| Kitl | 2 | 48.6 | 48.5 | inactive |
| Kitl | 3 | 82.2 | 115 | inactive |
| Rnaseh2b | 1 | 121 | 67.1 | active |
| Rnaseh2b | 2 | 51.1 | 47.5 | inactive |
| Rnaseh2b | 3 | 65.4 | 62 | inactive |
| Cmc1 | 1 | 87.9 | 84.7 | inactive |
| Cmc1 | 2 | 67.6 | 63.1 | inactive |
| Cmc1 | 3 | 67.4 | 76.4 | inactive |
| Msl3 | 1 | 96.1 | 69.1 | inactive |
| Msl3 | 2 | 71 | 73.1 | inactive |
| Msl3 | 3 | 51.4 | 56.8 | inactive |
| Lyrm2 | 1 | 100 | 82.9 | inactive |
| Lyrm2 | 2 | 58.5 | 80.9 | inactive |
| Lyrm2 | 3 | 70.7 | 51.7 | inactive |
| Plekhf1 | 1 | 101 | 58.3 | inactive |
| Plekhf1 | 2 | 81.7 | 69.4 | inactive |
| Plekhf1 | 3 | 86.3 | 51.4 | inactive |
| Zw10 | 1 | 56.7 | 32.4 | inactive |
| Zw10 | 2 | 83.6 | 80.2 | inactive |
| Zw10 | 3 | 74 | 96 | inactive |
| Itih1 | 1 | 67 | 69.4 | inactive |
| Itih1 | 2 | 91 | 81.5 | inactive |
| Itih1 | 3 | 57.6 | 66.6 | inactive |
| Or6c35 | 1 | 84.1 | 103 | inactive |
| Or6c35 | 2 | 40.3 | 24.2 | inactive |
| Or6c35 | 3 | 73.5 | 98.3 | inactive |
| Dsg1a | 1 | 81.5 | 65.5 | inactive |
| Dsg1a | 2 | 63.3 | 77.5 | inactive |
| Tpst2 | 1 | 35.3 | 38.5 | inactive |
| Tpst2 | 2 | 90.1 | 110 | inactive |
| Tpst2 | 3 | 18.1 | 33.5 | inactive |
| Morc4 | 1 | 95.4 | 101 | inactive |
| Morc4 | 2 | 91 | 82.9 | inactive |
| Morc4 | 3 | 59.9 | 67.2 | inactive |
| Ankfy1 | 1 | 84.7 | 83.6 | inactive |
| Ankfy1 | 2 | 88.8 | 80.9 | inactive |
| Ankfy1 | 3 | 81.9 | 80.1 | inactive |
| Slc18a2 | 1 | 79.6 | 56.6 | inactive |
| Slc18a2 | 2 | 84.5 | 76.4 | inactive |
| Slc18a2 | 3 | 113 | 101 | inactive |
| Sstr3 | 1 | 80.9 | 84.1 | inactive |
| Sstr3 | 2 | 70 | 73.7 | inactive |
| Sstr3 | 3 | 27.9 | 29.5 | inactive |
| Coa4 | 1 | 84.9 | 84 | inactive |
| Coa4 | 2 | 72.1 | 77.9 | inactive |
| Coa4 | 3 | 156 | 127 | active |
| Hook2 | 1 | 74.1 | 101 | inactive |
| Hook2 | 2 | 84.7 | 53.5 | inactive |

Called active, of those listed so far:
| target | reagent no. | GFP, % of control | viability (ATP), % of control | activity call |
| --- | --- | --- | --- | --- |
| Rnaseh2b | 1 | 121 | 67.1 | active |
| Coa4 | 3 | 156 | 127 | active |

The results go on:
| target | reagent no. | GFP, % of control | viability (ATP), % of control | activity call |
| --- | --- | --- | --- | --- |
| Ppp6r3 | 1 | 110 | 82.1 | inactive |
| Ppp6r3 | 2 | 60.4 | 71.3 | inactive |
| Ppp6r3 | 3 | 86.6 | 87.6 | inactive |
| Pax5 | 1 | 95.1 | 103 | inactive |
| Pax5 | 2 | 100 | 96.2 | inactive |
| Vps28 | 1 | 44 | 46.8 | inactive |
| Vps28 | 2 | 83.6 | 63.5 | inactive |
| Vps28 | 3 | 90.1 | 91.5 | inactive |
| Or10ag58 | 1 | 81.3 | 62.5 | inactive |
| Or10ag58 | 2 | 85 | 66 | inactive |
| Or10ag58 | 3 | 96.5 | 123 | inactive |
| Gzmk | 1 | 170 | 100 | active |
| Gzmk | 2 | 152 | 114 | active |
| Gzmk | 3 | 58.8 | 57.6 | inactive |
| Rab17 | 1 | 61.6 | 89.4 | inactive |
| Rab17 | 2 | 114 | 92.6 | inactive |
| Rab17 | 3 | 70.5 | 79.2 | inactive |
| Pitpnc1 | 1 | 61.8 | 64 | inactive |
| Pitpnc1 | 2 | 110 | 78.3 | inactive |
| Pitpnc1 | 3 | 90.5 | 101 | inactive |
| Mfsd8 | 1 | 51.2 | 73.2 | inactive |
| Mfsd8 | 2 | 83 | 103 | inactive |
| Mfsd8 | 3 | 75.2 | 85.1 | inactive |
| Spata32 | 1 | 93.3 | 85.9 | inactive |
| Spata32 | 2 | 91.8 | 101 | inactive |
| Spata32 | 3 | 114 | 99.5 | inactive |
| Ndel1 | 1 | 57.6 | 64.2 | inactive |
| Ndel1 | 2 | 70 | 87.3 | inactive |
| Ndel1 | 3 | 82.5 | 62.6 | inactive |
| Fbxo17 | 1 | 71.7 | 79.7 | inactive |
| Fbxo17 | 2 | 51.7 | 83.6 | inactive |
| Fbxo17 | 3 | 72.9 | 75.3 | inactive |
| Epb41l1 | 1 | 55.2 | 70 | inactive |
| Epb41l1 | 2 | 82.1 | 67.8 | inactive |
| Epb41l1 | 3 | 43.9 | 60.3 | inactive |
| Kcnq5 | 1 | 67.9 | 49.2 | inactive |
| Kcnq5 | 2 | 98 | 60.8 | inactive |
| Kcnq5 | 3 | 93.5 | 90.5 | inactive |
| Syt13 | 1 | 108 | 125 | inactive |
| Syt13 | 2 | 69.4 | 82.6 | inactive |
| Epcam | 1 | 80.8 | 66.8 | inactive |
| Epcam | 2 | 60.6 | 73 | inactive |
| Epcam | 3 | 74 | 69.5 | inactive |
| Pabpc4 | 1 | 79 | 129 | inactive |
| Pabpc4 | 2 | 47 | 62.2 | inactive |
| Cic | 1 | 85.2 | 74.4 | inactive |
| Cic | 2 | 65.8 | 50.3 | inactive |
| Cic | 3 | 109 | 105 | inactive |
| Tlk1 | 1 | 70.1 | 68.8 | inactive |
| Tlk1 | 2 | 119 | 72.3 | inactive |
| Tlk1 | 3 | 56.2 | 60.1 | inactive |
| Rhox11 | 1 | 73.3 | 53.5 | inactive |
| Rhox11 | 2 | 127 | 110 | active |
| Rhox11 | 3 | 23.1 | 37.8 | inactive |
| Tmem94 | 1 | 86.8 | 98.4 | inactive |
| Tmem94 | 2 | 108 | 83.5 | inactive |
| Tmem94 | 3 | 35.2 | 36.4 | inactive |
